According to the supplement of paper PMC8728848:
The other results are listed elsewhere or left out.

Tests used:
Assay in all cases: glycan array binding signal (z-score within array); higher = stronger binding
Settings in all cases: glycan notation: IUPAC condensed, linker removed
[1] = biological target: Gal(b1-4)GlcNAc(b1-2)Man(a1-3)[Gal(b1-4)GlcNAc(b1-2)Man(a1-6)]Man(b1-4)GlcNAc(b1-4)[Fuc(a1-6)]GlcNAc
Outline: (§1)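 From the Consortium for Functional Glycomics database, 3228 arrays were curated, keeping only those whose protein sequence was available. Binding is given as a within-array Z-score averaged across arrays sharing a protein sequence and across linkers. Negative Z-scores can be read as non-binding.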

[2] = biological target: Gal(b1-4)GlcNAc(b1-2)Man(a1-3)[Gal(b1-4)GlcNAc(b1-2)Man(a1-6)][Gal(b1-4)GlcNAc(b1-4)]Man(b1-4)GlcNAc(b1-4)[Fuc(a1-6)]GlcNAc
Outline: as §1

[3] = biological target: Gal(b1-4)GlcNAc(b1-2)Man(a1-3)[Gal(b1-4)GlcNAc(b1-2)Man(a1-6)][GlcNAc(b1-4)]Man(b1-4)GlcNAc(b1-4)[Fuc(a1-6)]GlcNAc
Outline: as §1

[4] = biological target: Gal(b1-4)GlcNAc(b1-2)Man(a1-3)[GlcNAc(b1-2)Man(a1-6)]Man(b1-4)GlcNAc(b1-4)GlcNAc
Outline: as §1

[5] = biological target: Gal(b1-4)GlcNAc(b1-2)Man(a1-3)[GlcNAc(b1-4)][Gal(b1-4)GlcNAc(b1-2)Man(a1-6)]Man(b1-4)GlcNAc(b1-4)GlcNAc
Outline: as §1

[6] = biological target: Gal(b1-4)GlcNAc(b1-2)Man(a1-3)[Man(a1-6)]Man(b1-4)GlcNAc(b1-4)GlcNAc
Outline: as §1

[7] = biological target: Gal(b1-4)GlcNAc(b1-2)Man(a1-6)Man(b1-4)GlcNAc(b1-4)GlcNAc
Outline: as §1

[8] = biological target: Gal(b1-4)GlcNAc(b1-2)Man(a1-6)[GlcNAc(b1-2)Man(a1-3)]Man(b1-4)GlcNAc(b1-4)GlcNAc
Outline: as §1

[9] = biological target: Gal(b1-4)GlcNAc(b1-2)Man(a1-6)[Man(a1-3)]Man(b1-4)GlcNAc(b1-4)GlcNAc
Outline: as §1

[10] = biological target: Gal(b1-4)GlcNAc(b1-2)[Gal(b1-4)GlcNAc(b1-4)]Man(a1-3)[Gal(b1-4)GlcNAc(b1-2)Man(a1-6)]Man(b1-4)GlcNAc(b1-4)GlcNAc
Outline: as §1

[11] = biological target: Gal(b1-4)GlcNAc(b1-2)[Gal(b1-4)GlcNAc(b1-4)]Man(a1-3)[Gal(b1-4)GlcNAc(b1-2)[Gal(b1-4)GlcNAc(b1-6)]Man(a1-6)]Man(b1-4)GlcNAc(b1-4)GlcNAc
Outline: as §1

[12] = biological target: Gal(b1-4)GlcNAc(b1-2)[Gal(b1-4)GlcNAc(b1-4)]Man(a1-3)[GlcNAc(b1-4)][Gal(b1-4)GlcNAc(b1-2)Man(a1-6)]Man(b1-4)GlcNAc(b1-4)GlcNAc
Outline: as §1

[13] = biological target: Gal(b1-4)GlcNAc(b1-2)[Gal(b1-4)GlcNAc(b1-4)]Man(a1-3)[GlcNAc(b1-4)][Gal(b1-4)GlcNAc(b1-2)[Gal(b1-4)GlcNAc(b1-6)]Man(a1-6)]Man(b1-4)GlcNAc(b1-4)GlcNAc
Outline: as §1

[14] = biological target: Gal(b1-4)GlcNAc(b1-2)[Gal(b1-4)GlcNAc(b1-6)]Man(a1-6)[Gal(b1-4)GlcNAc(b1-2)Man(a1-3)]Man(b1-4)GlcNAc(b1-4)GlcNAc
Outline: as §1

[15] = biological target: Gal(b1-4)GlcNAc(b1-2)[Gal(b1-4)GlcNAc(b1-6)]Man(a1-6)[Gal(b1-4)GlcNAc(b1-2)Man(a1-3)]Man(b1-4)GlcNAc(b1-4)[Fuc(a1-6)]GlcNAc
Outline: as §1

[16] = biological target: Gal(b1-4)GlcNAc(b1-2)[Gal(b1-4)GlcNAc(b1-6)]Man(a1-6)[GlcNAc(b1-4)][Gal(b1-4)GlcNAc(b1-2)Man(a1-3)]Man(b1-4)GlcNAc(b1-4)GlcNAc
Outline: as §1

[17] = biological target: Gal(b1-4)GlcNAc(b1-2)[Gal(b1-4)GlcNAc(b1-6)]Man(a1-6)[GlcNAc(b1-4)][Gal(b1-4)GlcNAc(b1-2)[Gal(b1-4)GlcNAc(b1-4)]Man(a1-3)]Man(b1-4)GlcNAc(b1-4)[Fuc(a1-6)]GlcNAc
Outline: as §1

[18] = biological target: Gal(b1-4)GlcNAc(b1-3)Gal(b1-3)GalNAc
Outline: as §1

[19] = biological target: Gal(b1-4)GlcNAc(b1-3)Gal(b1-3)GlcNAc
Outline: as §1

[20] = biological target: Gal(b1-4)GlcNAc(b1-3)Gal(b1-4)Glc
Outline: as §1

[21] = biological target: Gal(b1-4)GlcNAc(b1-3)Gal(b1-4)GlcNAc
Outline: as §1

[22] = biological target: Gal(b1-4)GlcNAc(b1-3)Gal(b1-4)GlcNAc(b1-2)Man(a1-3)[Gal(b1-4)GlcNAc(b1-3)Gal(b1-4)GlcNAc(b1-2)Man(a1-6)]Man(b1-4)GlcNAc(b1-4)GlcNAc
Outline: as §1

[23] = biological target: Gal(b1-4)GlcNAc(b1-3)Gal(b1-4)GlcNAc(b1-2)Man(a1-3)[Gal(b1-4)GlcNAc(b1-3)Gal(b1-4)GlcNAc(b1-2)Man(a1-6)]Man(b1-4)GlcNAc(b1-4)[Fuc(a1-6)]GlcNAc
Outline: as §1

B1: YghJ (Escherichia coli), E3PJ90 (protein)
chain: MNKKFKYKKSLLAAILSATLLAGCDGGGSGSSSDTPPVDSGTGSLPEVKPDPTPNPEPTPEPTPDPEPTPEPIPDPEPTPEPEPEPVPTKTGYLTLGGSQRVTGATCNGESSDGFTFKPGEDVTCVAGNTTIATFNTQSEAARSLRAVEKVSFSLEDAQELAGSDDKKSNAVSLVTSSNSCPANTEQVCLTFSSVIESKRFDSLYKQIDLAPEEFKKLVNEEVENNAATDKAPSTHTSPVVPVTTPGTKPDLNASFVSANAEQFYQYQPTEIILSEGRLVDSQGYGVAGVNYYTNSGRGVTGENGEFSFSWGEAISFGIDTFELGSVRGNKSTIALTELGDEVRGANIDQLIHRYSTTGQNNTRVVPDDVRKVFAEYPNVINEIINLSLSNGATLGEGEQVVNLPNEFIEQFNTGQAKEIDTAICAKTDGCNEARWFSLTTRNVNDGQIQGVINKLWGVDTNYKSVSKFHVFHDSTNFYGSTGNARGQAVVNISNAAFPILMARNDKNYWLAFGEKRAWDKNELAYITEAPSIVRPENVTRETASFNLPFISLGQVGDGKLMVIGNPHYNSILRCPNGYSWNGGVNKDGQCTLNSDPDDMKNFMENVLRYLSNDRWLPDAKSSMTVGTNLETVYFKKHGQVLGNSAPFAFHKDFTGITVKPMTSYGNLNPDEVPLLILNGFEYVTQWGSDPYSIPLRADTSKPKLTQQDVTDLIAYMNKGGSVLIMENVMSNLKEESASGFVRLLDAAGLSMALNKSVVNNDPQGYPDRVRQRRSTPIWVYERYPAVDGKPPYTIDDTTKEVIWKYQQENKPDDKPKLEVASWQEEVEGKQVTQFAFIDEADHKTPESLAAAKQRILDAFPGLEVCKDSDYHYEVNCLEYRPGTDVPVTGGMYVPQYTQLDLSADTAKAMLQAADLGTNIQRLYQHELYFRTNGRQGERLNSVDLERLYQNMSVWLWNETKYRYEEGKEDELGFKTFTEFLNCYTNNAYVGTQCSAELKKSLIDNKMIYGEESSKAGMMNPSYPLNYMEKPLTRLMLGRSWWDLNIKVDVEKYPGVVNTNGETVTQNINLYSAPTKWFAGNMQSTGLWAPAQQEVSIESKSTVPVTVTVALADDLTGREKHEVSLNRPPRVTKTYDLKANDKVTFKVPYGGLIYIKGDSKEVQSADFTFTGVVKAPFYKDGKWQHDLNSPAPLGELESASFVYTTPKKNLNASNYTGGLEQFANDLDTFASSMNDFYGRDSEDGKHRMFTYKNLPGHKHRFANDVQISIGDAHSGYPVMNSSFSPNSTTLPTTPLNDWLIWHEVGHNAAETPLTVPGATEVANNVLALYMQDRYLGKMNRVADDITVAPEYLEESNGQAWARGGAGDRLLMYAQLKEWAEKNFDIKKWYPDGTPLPEFYSEREGMKGWNLFQLMHRKARGDEVSNDKFGGKNYCAESNGNAADTLMLCASWVAQTDLSEFFKKWNPGANAYQLPGASEMSFEGGVSQSAYNTLASLDLPKPEQGPETINQVTEHKMSAE
glycan array binding signal (z-score) [1]: 2.37
glycan array binding signal (z-score) [2]: -0.289
glycan array binding signal (z-score) [3]: 0.597
glycan array binding signal (z-score) [4]: -0.144
glycan array binding signal (z-score) [5]: 0.81
glycan array binding signal (z-score) [6]: -0.741
glycan array binding signal (z-score) [7]: -0.601
glycan array binding signal (z-score) [8]: -0.15
glycan array binding signal (z-score) [9]: 0.902
glycan array binding signal (z-score) [10]: -0.243
glycan array binding signal (z-score) [11]: -0.981
glycan array binding signal (z-score) [12]: 1.06
glycan array binding signal (z-score) [13]: 0.332
glycan array binding signal (z-score) [14]: 0.576
glycan array binding signal (z-score) [15]: -1.68
glycan array binding signal (z-score) [16]: -0.084
glycan array binding signal (z-score) [17]: -0.025
glycan array binding signal (z-score) [18]: -0.534
glycan array binding signal (z-score) [19]: -0.474
glycan array binding signal (z-score) [20]: 0.172
glycan array binding signal (z-score) [21]: 0.369
glycan array binding signal (z-score) [22]: 0.91
glycan array binding signal (z-score) [23]: 1.13
